Source: PubChem BioAssay AID540276 (National Center for Advancing Translational Sciences (NCATS), 2011)
Screen size: about 300,000 compounds; about 5,400 (1.8%) were called active. The inconclusive results got no clear call from the source; some entries with a clear call stand among them for comparison. Calls come from the whole dose curve; tested in HEK293 cells. Potencies beside an inconclusive call are fits to weak or partial responses and may not hold up. A structure can be active in one record and inactive in another.

assay: qHTS for inhibitors of binding or entry into cells for Marburg Virus; settings: Marburg virus pseudotyped entry inhibition, cell reporter; activity change, negative = inhibition: at 37.8 µM (top of the series) unless noted
% is set by controls: 0 for no effect and ±100 for the full control effect; potency is the fitted concentration of half-maximal effect.

Q: Which Potency does the source give for `Cc1ccc(NC(C)C(=O)N/N=C/c2c[nH]c3ccccc23)cc1` (stereo not given) here?
A: Its Potency is inconclusive: 17.8 µM [activator, single point].

Q: For `Cc1onc(-c2c(Cl)cccc2Cl)c1C(=O)N1CCCc2ccccc21`, which Potency is on record?
A: Its Potency is inconclusive: 16.4 µM [inhibitor, partial curve, poor fit].

Q: Which Potency does the source give for `COc1ccc(/C=N/Nc2nc(N3CCCC3)nc(N3CCCC3)n2)c(OC)c1OC` here?
A: The Potency was inconclusive: 0.562 µM [inhibitor, full curve, poor fit].

Q: For `COC(=O)c1c(-c2ccc(F)cc2)noc1N`, which “activity change, negative = inhibition” value is on record?
A: Its value is inactive: -3.57%.

Q: With `COc1ccc(C(=O)N2CCc3cc(OC)c(OC)cc3C2c2ccc(OC)c(OC)c2)cc1` (stereo not given) as the compound, how does the Potency read?
A: Its Potency is inconclusive: 7.94 µM [inhibitor, partial curve, poor fit].

Q: Which Potency does the source give for `CS(=O)(=O)N1CCCC(c2nc(-c3ccc(S(=O)(=O)NCc4ccccc4)cc3)no2)C1` (stereo not given) here?
A: The Potency was active: 0.13 µM.

Q: With `COc1cc(C2=NOC(C(=O)Nc3ccc(C(C)=O)cc3)C2)cc(OC)c1OC` (stereo not given) as the compound, how does the “activity change, negative = inhibition” value read?
A: The value was inactive: 0.307%.

Q: Which Potency does the source give for `Cc1ccc(C)c(-n2c(N)c(C(N)=O)sc2=S)c1` here?
A: The Potency was inconclusive: 1.26 µM [inhibitor, single point].

Q: With `COc1ccc(Cc2nnc(NC(=O)c3cc(OC)c(OC)c(OC)c3)s2)cc1OC` as the compound, how does the Potency read?
A: Its Potency is inconclusive: 10 µM [inhibitor, partial curve, poor fit].

Q: Which “activity change, negative = inhibition” value does the source give for `CCCN(C(=O)Cn1cnc2sc(C)c(S(=O)(=O)N3CCN(c4ncccn4)CC3)c2c1=O)c1cccc(C)c1` here?
A: The value was inactive: 34.7% [at 46.1 µM].

Q: For `CC1CCCCN1S(=O)(=O)c1ccc(C(=O)Nc2nnc(-c3ccco3)o2)cc1` (stereo not given), which Potency is on record?
A: The Potency was inconclusive: 35.5 µM [inhibitor, single point].

Q: With `O=C(Nc1ccc(N2CCCCC2)c(Cl)c1)c1ccc(N2CCOCC2)c([N+](=O)[O-])c1` as the compound, how does the Potency read?
A: The Potency was inconclusive: 14.6 µM [inhibitor, partial curve, poor fit].

Q: With `Cc1nc2ccc(CCO)cc2s1` as the compound, how does the Potency read?
A: Its Potency is inconclusive: 0.0046 µM [inhibitor, full curve, poor fit].

Q: Which Potency does the source give for `O=C(Cc1ccc([N+](=O)[O-])cc1)Nc1ccc(Cl)cc1` here?
A: The Potency was inconclusive: 4.47 µM [inhibitor, single point].

Q: Which Potency does the source give for `Cc1cc(=O)n2nc(N3CCC(C(=O)NCc4ccccc4Cl)CC3)sc2n1` here?
A: Its Potency is “inactive”.

Q: For `Cc1ccc(C)c(S(=O)(=O)N2CCCOC2CNC(=O)C(=O)NCc2ccco2)c1` (stereo not given), which “activity change, negative = inhibition” value is on record?
A: The value was inactive: -15.2%.

Q: For `CCC(C(=O)NCCN1CCOCC1)n1c2ccccc2c2nc(=O)cc(C)n21` (stereo not given), which “activity change, negative = inhibition” value is on record?
A: Its value is inactive: 13.3% [at 46.1 µM].

Q: Which Potency does the source give for `CCOc1ccc(N2CC(C(=O)Nc3nnc(Cc4ccc(OC)cc4)s3)CC2=O)cc1` (stereo not given) here?
A: Its Potency is inconclusive: 35.5 µM [inhibitor, partial curve, poor fit].

Q: For `CCc1ccc(-c2cc(C(=O)N/N=C/c3ccccn3)[nH]n2)cc1`, which “activity change, negative = inhibition” value is on record?
A: The value was inactive: -6.67% [at 46.1 µM].

Q: For `COc1cc(C(=O)N2CCN(C(=O)C3COc4ccccc4O3)CC2)cc(OC)c1OC` (stereo not given), which “activity change, negative = inhibition” value is on record?
A: Its value is inactive: 18.9% [at 46.1 µM].

Q: Which Potency does the source give for `CCc1ccc(OCC(=O)Nc2c(C(=O)c3ccccc3)oc3ccccc23)cc1` here?
A: Its Potency is inconclusive: 2.24 µM [inhibitor, full curve].

Q: Which Potency does the source give for `COc1cc(CN(C)c2ncnc3sccc23)ccc1OC(F)F` here?
A: The Potency was active: 2.82 µM.

Q: For `COc1ccccc1CN(CC(=O)NCc1ccco1)C(=O)CNS(=O)(=O)c1ccccc1`, which “activity change, negative = inhibition” value is on record?
A: Its value is inactive: -0.494%.

Q: For `O=c1[nH]c2ccc(Cl)cc2c(=O)n1Cc1ccco1`, which Potency is on record?
A: Its Potency is inconclusive: 0.447 µM [inhibitor, partial curve, poor fit].

Q: Which Potency does the source give for `c1cncc(CNc2ccc3c(c2)OCO3)c1` here?
A: The Potency was inconclusive: 14.1 µM [activator, single point].

Q: Which “activity change, negative = inhibition” value does the source give for `Cc1ccc(NC(=O)CC2SCCNC2=O)cc1[N+](=O)[O-]` (stereo not given) here?
A: Its value is inactive: 9.05%.

Q: Which Potency does the source give for `C=CCC1(CC=C)CCCN1C(=O)c1cc(COc2ccc(-n3cncn3)cc2)on1` here?
A: Its Potency is inconclusive: 7.94 µM [inhibitor, partial curve].

Q: Which Potency does the source give for `Cc1ccc(S(=O)(=O)Nc2ccc(C(=O)N3CCOCC3)cc2)cc1` here?
A: The Potency was inconclusive: 14.1 µM [inhibitor, single point].

Q: Which Potency does the source give for `O=C1/C(=C/c2cccs2)CCC/C1=C\c1cccs1` here?
A: The Potency was inconclusive: 35.5 µM [inhibitor, single point].

Q: With `O=C(O)CCc1[nH]c2ccccc2c1Sc1ccccc1` as the compound, how does the Potency read?
A: The Potency was inconclusive: 0.891 µM [inhibitor, single point].

Q: With `Cc1ccc(-c2cnc(NCc3c(F)cccc3Cl)n2C)cc1` as the compound, how does the Potency read?
A: Its Potency is inconclusive: 28.2 µM [inhibitor, single point].

Q: With `COc1ccccc1NC(=O)Nc1nc(CC(=O)NCc2c(F)cccc2F)cs1` as the compound, how does the Potency read?
A: The Potency was inconclusive: 17.8 µM [inhibitor, single point].

Q: Which Potency does the source give for `Cc1ccc(C)c(C(C)NC(=S)NC2CCCCC2)c1` (stereo not given) here?
A: The Potency was inconclusive: 31.6 µM [inhibitor, partial curve, poor fit].

Q: Which Potency does the source give for `COc1ccc(C(=O)c2sc(Nc3ccccc3)nc2N)cc1OC` here?
A: The Potency was inconclusive: 2.82 µM [inhibitor, full curve, poor fit].

Q: With `COc1ccccc1NC(=O)c1ccccc1-c1nc(-c2ccccc2OC)no1` as the compound, how does the Potency read?
A: The Potency was active: 11.6 µM.

Q: With `CCOC(=O)c1ccc(NC(=O)c2nsc3ccccc23)cc1` as the compound, how does the Potency read?
A: Its Potency is inconclusive: 3.16 µM [activator, full curve, poor fit].

Q: For `Cc1ccc(-n2c(CNc3ccc(F)cc3)nnc2SCC(=O)NCc2ccco2)cc1`, which Potency is on record?
A: The Potency was inconclusive: 23.1 µM [inhibitor, partial curve, poor fit].

Q: Which Potency does the source give for `COC(=O)c1ccc(NC(=S)NC(=O)c2cc(-c3ccccc3)nc3ccccc23)cc1` here?
A: Its Potency is inconclusive: 0.708 µM [inhibitor, full curve, poor fit].

Q: With `CN(C)S(=O)(=O)c1ccc(Cl)c(C(=O)Nc2cccc3ncccc23)c1` as the compound, how does the “activity change, negative = inhibition” value read?
A: Its value is inactive: -25.1%.

Q: With `COc1ccc(CCNC(=O)C/C(C)=N/NC(=O)COc2ccc(C)cc2Br)cc1OC` as the compound, how does the Potency read?
A: The Potency was inconclusive: 6.31 µM [inhibitor, partial curve, poor fit].

Q: With `CCOC(=O)C1CCCN(C(=O)CN2C(=O)/C(=C/c3ccc(OC)cc3)Oc3ccccc32)C1` (stereo not given) as the compound, how does the Potency read?
A: The Potency was inconclusive: 35.5 µM [inhibitor, single point].

Q: Which Potency does the source give for `CN(C)CC(C)(C)CNC(C(=O)Nc1ccc(Cl)cc1C(F)(F)F)c1ccccc1` (stereo not given) here?
A: The Potency was inconclusive: 10 µM [inhibitor, partial curve, poor fit].

Q: For `CCCC12CN(C(=O)c3ccc([N+](=O)[O-])cc3)CC(C)(CN(C(=O)c3ccc([N+](=O)[O-])cc3)C1)C2=O`, which Potency is on record?
A: Its Potency is inconclusive: 0.112 µM [inhibitor, full curve, poor fit].

Q: Which Potency does the source give for `Cc1ccc2nc(Cl)c3cc(C(=O)NC4CCCCC4)sc3c2c1` here?
A: Its Potency is inconclusive: 5.62 µM [activator, single point].

Q: For `CC(C)NC(=S)N/N=C/c1cc(Br)ccc1O`, which Potency is on record?
A: Its Potency is inconclusive: 11.2 µM [inhibitor, partial curve].

Q: For `O=C(N/N=C/c1cccc(Oc2ccccc2)c1)c1cccc(Br)c1`, which Potency is on record?
A: Its Potency is inconclusive: 1.83 µM [inhibitor, partial curve, poor fit].

Q: For `CC(Sc1nnnn1C1CC1)C(=O)N1CC(=O)Nc2ccccc21` (stereo not given), which Potency is on record?
A: Its Potency is inconclusive: 20 µM [activator, single point].

Q: Which Potency does the source give for `CC(=NCCCN1CCCCC1)c1c(O)n(Cc2ccccc2)c(=O)[nH]c1=O` here?
A: Its Potency is inconclusive: 12.6 µM [inhibitor, partial curve, poor fit].

Q: With `CCc1cc2cc(C(=O)N3CCN(c4ccccc4)CC3)sc2s1` as the compound, how does the “activity change, negative = inhibition” value read?
A: The value was inactive: 4.77%.

Q: For `Cc1ccc(S(=O)(=O)N2CCN(C(=O)CSc3ncn[nH]3)CC2)cc1`, which Potency is on record?
A: Its Potency is inconclusive: 1.78 µM [inhibitor, partial curve].

Q: With `Cc1oc(-c2ccccc2Cl)nc1CS(=O)(=O)CC(=O)NC(C)CCc1ccccc1` (stereo not given) as the compound, how does the Potency read?
A: The Potency was inconclusive: 8.91 µM [inhibitor, partial curve, poor fit].

Q: For `CNc1nnc(-c2cc3ccccc3oc2=O)s1`, which Potency is on record?
A: Its Potency is inconclusive: 16.4 µM [inhibitor, single point].

Q: For `CCn1nnc2cc(C(=O)Nc3ccc(C(=O)OC(C)C)cc3)ccc21`, which “activity change, negative = inhibition” value is on record?
A: Its value is inactive: -7.15%.

Q: For `CC1(C(=O)NC2CCCC2)CCC(=O)N1Cc1ccccc1` (stereo not given), which “activity change, negative = inhibition” value is on record?
A: The value was inactive: 28.1%.

Q: For `COc1ccc(NC(=O)C/C(C)=N/NC(=O)c2cnccn2)cc1`, which Potency is on record?
A: Its Potency is inconclusive: 6.31 µM [activator, full curve, poor fit].

Q: With `CCc1ccccc1NC(=O)CSc1nc2n[nH]c(C)c2c(=N)n1-c1cccc(OC)c1` as the compound, how does the Potency read?
A: Its Potency is inconclusive: 29.1 µM [inhibitor, single point].

Q: With `CCCS(=O)(=O)c1c(S(=O)(=O)CCC)c2ccc(C(N)=O)cn2c1C(=O)c1ccc(OC)cc1` as the compound, how does the “activity change, negative = inhibition” value read?
A: Its value is inactive: -15% [at 46.1 µM].

Q: For `CCN1CCN(c2ccc(S(=O)(=O)N3CCCCC3)cc2NC(=O)COc2ccc(F)cc2Cl)CC1`, which Potency is on record?
A: The Potency was inconclusive: 8.91 µM [inhibitor, single point].

Q: Which Potency does the source give for `N#CCCNc1c(Cl)cc(Cl)cc1C(=O)O` here?
A: Its Potency is inconclusive: 13 µM [activator, partial curve, poor fit].

Q: Which Potency does the source give for `Cc1ccc(NC(=O)Cn2ncc3c4ccccc4n(Cc4ccccc4)c3c2=O)cc1Cl` here?
A: The Potency was inconclusive: 7.94 µM [activator, partial curve, poor fit].

Q: With `CCCCc1ccc(NC(=O)CSc2nc(=O)n(CCN3CCOCC3)c3c2CCC3)cc1` as the compound, how does the “activity change, negative = inhibition” value read?
A: The value was inactive: -6.27%.

Q: Which Potency does the source give for `CN(C)c1ccc(NC(=O)Cc2ccccc2)c2ccccc12` here?
A: Its Potency is inconclusive: 20 µM [activator, single point].

Q: Which Potency does the source give for `N=c1c(S(=O)(=O)c2ccc(Cl)cc2)cc2c(=O)n3ccccc3nc2n1Cc1ccco1` here?
A: The Potency was inconclusive: 7.08 µM [inhibitor, full curve, poor fit].

Q: For `CCOP(C)(=O)C1(C(=O)OCc2ccccc2)CC1` (stereo not given), which Potency is on record?
A: Its Potency is inconclusive: 10 µM [activator, partial curve].

Q: With `CCN(CC)S(=O)(=O)c1ccc(N2CCOCC2)c(NC(=O)c2ccc(=O)[nH]c2)c1` as the compound, how does the “activity change, negative = inhibition” value read?
A: Its value is inactive: -0.192% [at 46.1 µM].
